Measurements: patent US7491397B2, “Receptor binding polypeptides” (National Health Research Institutes, priority 2004, dated 2009)
Some results were stated once for a whole list of compounds, not compound by compound.

Tested on: mice
Assay: Immunogenicity of RBD1 or 2 fusion protein in mice
Type: in vivo, mouse
Conditions: Freund's adjuvant

rRBD1: recombinant Myc-His fusion of N-terminal amino acids 80-228 of the S protein (receptor binding domain 1), expressed in E coli
Dose at which immunogenic in mice: ≤ 5 μg/injection
